## Percent effect of library compounds

By UniProt entry, the sequences of proteins in these tests, tags left out. Residues count along the entry.
UniProt P9WPC5, whole entry: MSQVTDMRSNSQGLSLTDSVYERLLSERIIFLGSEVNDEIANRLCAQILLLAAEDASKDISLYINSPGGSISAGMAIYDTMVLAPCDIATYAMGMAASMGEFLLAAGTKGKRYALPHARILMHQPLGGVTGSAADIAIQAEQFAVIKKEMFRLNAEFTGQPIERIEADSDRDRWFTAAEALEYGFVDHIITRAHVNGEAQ
UniProt P9WPC3, whole entry partner: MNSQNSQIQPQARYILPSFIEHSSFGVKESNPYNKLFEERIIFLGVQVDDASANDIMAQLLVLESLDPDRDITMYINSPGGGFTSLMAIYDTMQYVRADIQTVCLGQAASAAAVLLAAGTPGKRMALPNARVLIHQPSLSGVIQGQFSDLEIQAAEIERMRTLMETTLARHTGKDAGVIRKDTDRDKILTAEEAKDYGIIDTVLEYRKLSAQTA
UniProt P9WNZ1, whole entry: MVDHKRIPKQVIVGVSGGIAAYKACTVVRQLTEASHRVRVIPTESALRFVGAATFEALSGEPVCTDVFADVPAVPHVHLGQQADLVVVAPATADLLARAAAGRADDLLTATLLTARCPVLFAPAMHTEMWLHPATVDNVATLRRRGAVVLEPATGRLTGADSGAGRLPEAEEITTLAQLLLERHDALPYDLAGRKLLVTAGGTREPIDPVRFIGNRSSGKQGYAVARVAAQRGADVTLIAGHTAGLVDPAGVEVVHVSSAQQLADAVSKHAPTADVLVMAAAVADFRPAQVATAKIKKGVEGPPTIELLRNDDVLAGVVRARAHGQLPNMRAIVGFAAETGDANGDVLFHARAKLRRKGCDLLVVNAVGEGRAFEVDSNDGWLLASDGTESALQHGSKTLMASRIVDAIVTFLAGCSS
UniProt Q8IDJ8, 1-583: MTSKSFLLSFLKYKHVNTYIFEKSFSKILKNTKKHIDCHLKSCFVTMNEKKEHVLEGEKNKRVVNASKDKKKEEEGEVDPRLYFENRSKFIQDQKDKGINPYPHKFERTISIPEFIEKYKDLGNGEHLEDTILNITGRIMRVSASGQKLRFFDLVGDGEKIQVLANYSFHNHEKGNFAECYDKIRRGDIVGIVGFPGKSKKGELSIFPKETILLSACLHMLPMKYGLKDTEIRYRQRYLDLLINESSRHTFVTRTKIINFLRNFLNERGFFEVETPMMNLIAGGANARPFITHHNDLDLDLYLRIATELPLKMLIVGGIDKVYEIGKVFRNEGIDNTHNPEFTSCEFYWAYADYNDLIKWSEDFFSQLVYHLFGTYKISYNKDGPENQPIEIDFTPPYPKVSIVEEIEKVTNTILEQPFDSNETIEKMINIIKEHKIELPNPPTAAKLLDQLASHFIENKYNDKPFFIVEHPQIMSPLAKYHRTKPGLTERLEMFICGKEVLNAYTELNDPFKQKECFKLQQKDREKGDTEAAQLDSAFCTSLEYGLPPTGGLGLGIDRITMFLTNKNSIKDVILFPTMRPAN

Each number is a percent effect as filed. How 0% and 100% were set is not recorded. Most values in the screen are low, and negative values occur. Compounds were drawn at random from those tested, without regard to their results. Two or more numbers in one place are separate tests of the same structure; such repeats can differ widely.

A: 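ClpP1P2, Mycobacterium tuberculosis (UniProt P9WPC5 and UniProt P9WPC3). Protease assay of ClpP1P2, read by the AMC dye that it sets free. Compounds at 50 µM. Direction is inferred from only a few compounds that gave an IC50; most scored high, so higher reads as stronger inhibition. Most other retested compounds had strongly negative values. About 69,000 compounds were tested under these conditions; 0.015% (about 10) showed 50% or more at least once.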
B: 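Enzyme assay of CoaBC with a phosphate dye (Biomol Green) read at 650 nm. Target: Coenzyme A biosynthesis protein CoaBC, Mycobacterium tuberculosis (UniProt P9WNZ1). Concentration: 30 µM. Direction is inferred from only a few compounds that gave an IC50; most scored high, so higher reads as stronger inhibition. Most strong results did not repeat in a second test. About 67,000 compounds were tested under these conditions; 0.06% (about 40) showed 50% or more at least once.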
C: 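Enzyme assay of the cytosolic lysyl-tRNA synthetase in 384-well plates, read by luminescence. Target: Lysine-tRNA ligase, Plasmodium falciparum 3D7 (UniProt Q8IDJ8). Tested at 30 µM. Higher reads as stronger inhibition, judged from the few compounds that gave an IC50. About 69,000 compounds were tested under these conditions; 0.071% (about 49) showed 50% or more at least once.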
D: 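Cell assay of Leishmania donovani living inside macrophages; the read-out is not stated. Compounds at 30 µM. The record gives no direction; compounds that gave an IC50 in retests scored well above the rest, so higher reads as stronger inhibition. Of about 69,000 compounds tested this way, about 1,000 (1.5%) reached 50% or more in at least one test.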

{"compound": "Cc1cccc(CN2C[C@@H]3COC[C@]3(CNC(=O)c3cccn3C)C2)n1", "A": 8.734, "B": 7.563, "C": 7.475}
{"compound": "O=C1CC2(CCN(Cc3ccccn3)C2)CN1c1cncnc1", "stereo": "stereo not given", "A": 6.495, "B": 5.141, "C": 5.181}
{"compound": "CN1CCN(C2CCN(Cc3cn4ccccc4n3)CC2)C1=O", "A": 6.504, "B": 2.39, "C": 2.373, "D": 19.69}
{"compound": "CCOc1ncccc1C(=O)N1CCCC(c2nccn2CCOC)C1", "stereo": "stereo not given", "A": -6.081, "B": 5.702, "C": 1.671, "D": 8.882}
{"compound": "CSc1ccc(CN(C)C(=O)c2cc3c([nH]c2=O)CCCC3=O)cc1", "A": -1.168, "B": 5.355, "C": 1.484, "D": 12.94}
{"compound": "Cn1nc2c(cc1=O)CN(c1nc3ccccc3s1)CC2", "A": 11.65, "B": 3.427, "C": 6.577, "D": -73.76}
{"compound": "CCC1=N[C@@]2(CC[C@@H]3CN(CC(C)C)C[C@@H]32)C(=O)N1", "A": -11.1, "B": 3.333, "C": 3.693}
{"compound": "CN1CC(=O)N(c2cccc(F)c2)CC12CCN(Cc1ccsc1)C2", "stereo": "stereo not given", "A": -17.21, "B": 4, "C": 2.749}
{"compound": "CCc1nnc2n1CCN(CC(=O)N(CC)C1=CCCCC1)C2", "A": -8.956, "B": -4.071, "C": 0.8251, "D": "6.813 and -27.73"}
{"compound": "Cc1ncc(CN2CCC(CNS(=O)(=O)C3CC3)C2)cn1", "stereo": "stereo not given", "A": -6.262, "B": 8.025, "C": 2.774, "D": 20.93}
{"compound": "Cc1nc(C)n(C2CCCN(C(=O)c3cccc4cn[nH]c34)C2)n1", "stereo": "stereo not given", "A": -12.55, "B": 4.104, "C": 4.986, "D": -2.915}
{"compound": "COc1c(CNC2CCSc3ccc(F)cc32)c(C)nn1C", "stereo": "stereo not given", "A": -7.307, "B": 3.953, "C": 6.822}
{"compound": "CC(=O)N1C[C@@H](F)[C@@H](OCc2nc3ccccc3o2)C1", "A": -1.569, "B": 6.402, "C": 1.236, "D": 14.93}
{"compound": "CNC(=O)N1CCC2(CC1)c1ncc(-c3cccc(F)c3)n1CCN2C.O=C(O)C(F)(F)F", "D": 7.705}
{"compound": "Cc1nc[nH]c1CN1CCN(C(=O)C2CC2)[C@H]2CS(=O)(=O)C[C@H]21", "A": -16.81, "B": 1.277, "C": 3.741}
{"compound": "CC(C)(C)C(=O)N1CCN(CCOc2cccc(C#N)c2)CC1", "A": 5.502, "B": -14.52, "C": 8.129, "D": 16.73}

Some entries from above, unchanged:

- CC(=O)N1C[C@@H](F)[C@@H](OCc2nc3ccccc3o2)C1 | A: -1.569%; B: 6.402%; C: 1.236%; D: 14.93%
- Cc1cccc(CN2C[C@@H]3COC[C@]3(CNC(=O)c3cccn3C)C2)n1 | A: 8.734%; B: 7.563%; C: 7.475%

Data taken from ChEMBL document CHEMBL3988442, “University of Dundee, Small-Polar-MMV Screening Library” (2021).